Measured values reported in patent publication US8962576B2, “Compositions and method for improving endothelial function and cardiovascular health” (Natreon, Inc., priority 2012, dated 2015).

What was measured:
[1] = test system: Type 2 Diabetic Subjects; test: Biomarkers of oxidative stress and hsCRP, study (c); format: in vivo, human; settings: CAPROS 250 mg twice daily, Atorvastatin 10 mg daily, n = 20
Description: Malondialdehyde (MDA) levels were determined as described in Vidyasagar, et al., “Oxidative stress and antioxidant status in acute organophosphorous insecticide poisoning,” Indian J. Pharmacol. (April 2004) 36(2): 76-79. Glutathione levels were determined as described in G. L. Ellman, Arch. Biochem. Biophys. (1959) 82: 70-77 (original determination). Nitric oxide levels were estimated spectrophotometrically as described in Miranda, et al., “A Rapid, Simple Spectrophotometric Method for Simultaneous Detection of Nitrate and Nitrite,” NITRIC OXIDE: Biology and Chemistry (2001) Vol. 5, No. 1, pp. 62-71.
(§1) After screening, all the eligible subjects were randomized to receive either one of the four treatments for a duration of 12 weeks, as follows. Group 1: one capsule of CAPROS® 250 mg twice daily, group 2: one capsule of CAPROS® 500 mg twice daily; group 3: one capsule of Placebo in morning or one capsule of Atorvastatin 10 mg in evening daily; and group 4: only Placebo twice daily.
Nitric oxide, MDA, Glutathione (GSH) and levels thereof were estimated spectrophotometrically as described above, and HsCRP (high sensitivity C-reactive protein) by ELISA method.

[2] = test system: Type 2 Diabetic Subjects; test: Glycosylated Hemoglobin A1c, study (c); format: in vivo, human; settings: CAPROS 250 mg twice daily, Atorvastatin 10 mg daily, n = 20
Description: as §1
All the subjects had undergone complete physical examination, safety lab evaluations at baseline and at the end of the treatment. Samples were collected after an overnight fast of 12 hrs after the last dose of medication for determination of haemoglobin, HbA1c, blood urea and serum creatinine, liver function test, and lipid profile (Total cholesterol (TC), High density lipoprotein cholesterol (HDL-C), low density lipoprotein cholesterol (LDL-C)), and results obtained using appropriate standard techniques.

Structure (SMILES): CC(C)c1c(C(=O)Nc2ccccc2)c(-c2ccccc2)c(-c2ccc(F)cc2)n1CC[C@@H](O)C[C@@H](O)CC(=O)O [Atorvastatin]
- Absolute change in GSH ([1]; 12 weeks): 222.99 ± 140.15 μM/L
- Mean percentage change in GSH ([1]; 12 weeks): 68.40 ± 58.76%
- GSH ([1]; Post TT, 12 weeks): 641.8 ± 150.2 μM/L
- GSH ([1]; Pre TT): 418.8 ± 166.7 μM/L
- absolute change in HbA1c ([2]; 12 weeks): −0.64 ± 0.23%
- HbA1c ([2]; Post TT, 12 weeks): 6.99 ± 0.39%
- HbA1c ([2]; Pre TT): 7.62 ± 0.33%
